B1: il2ra_site2_3nfp_sap_21_mot_HHH_b1_05437_000000005_0001_40_57_H_._HHH_b1_08057_af2_0001_0000300017_0000001_0_0001 (protein)
chain: SSSSLEEEVERLLKEAEEALEEGDKFEAFAILADAAALVAERDNEELYRKIAELSLEVFEKSSSS
B2: il2ra_site1_2b5i_normal_mot_1b7c2b8d5952c6b49ef050017b44e09d_0001_af2_000000258_0001_1_14_H_._HHH_b2_04057_0001_0000500027_0000001_0_af2pred_0001_af2pred (protein)
chain: SSSSDDEATELAREVLKQLWHLAAQGNPEEVEELAEEARRRLEELGSPAAAEDIRKLLEFLSSSS
B3: il2ra_site2_3nfp_sap_22_mot_HHH_b2_05281_000000198_0001_39_56_H_._HHH_b1_07793_0001_0000100002_0000001_0_0001 (protein)
chain: SSSDEEEVRKLLEEAEKKLEEGNPEEAHRLLAEASQLAWELRNFEAFALVADVAYRFFQSNSSSS
B4: il2ra_site2_3nfp_normal_mot_HHH_b2_07670_af2_000000034_0001_1_17_H_._HHH_b1_07540_af2_0001_0000100001_0000001_0 (protein)
chain: SSSDEEDLELAIEYALIAAKLWGDEEVAKEIEELLERFRKEGDRKYTTEVWELAQEIIEEGSSSS
B5: il2ra_site1_3nfp_normal_mot_HHH_b1_04515_000000241_0001_1_21_H_._78f3cea537ddf5c4686abc92c323a9bd_0001_af2_0001_0000400022_0000001_0 (protein)
chain: DRAVKWLFEAFKRDGIPPEKVAEKIIKEAARSLKVPPEEVAEWLKELAKELGDPELEEALEQALK
B6: il2ra_site1_1z92_sap_11_mot_HHH_b1_07036_000000095_0001_39_53_H_._HHH_b1_02854_af2_0001_0000600026_0000001_0_0001_af2pred_0001_af2pred_1 (protein)
chain: SSSSSSEEERAERATELFKQASKTRDQEEVERLLEEALELAKEANDESAREDIERYLRALSSSSS
B7: il2ra_site2_3nfp_normal_mot_HHH_b2_04451_000000238_0001_21_37_H_._HHH_b1_03083_af2_0001_0000700010_0000001_0 (protein)
chain: SSSSDEEERVKELLEEIKELIEEGDRFEALHLLVEATRVATEGNNEELAREVLRLFAELQSSSSS
B8: il2ra_site1_3nfp_normal_mot_HHH_b1_04285_af2_000000144_0001_40_53_H_._HHH_b2_02112_0001_0000400032_0000001_0 (protein)
chain: SSSSSDRELQEAARLIQRLYKRGDKEELKRALEEAIELAEEENDEKARELLEWLLEDLRNSSSSS
B9: il2ra_site1_3nfp_sap_15_mot_HHH_b2_04910_af2_000000236_0001_1_18_H_._HHH_b2_07743_0001_0000100004_0000001_0_0001_af2pred_0001_af2pred (protein)
chain: SSSSIDVVQRAQELIKEVLRLMNEGDEEEAKELLKELKELAEKTNDPNLKLLVRRLEKKLGSSSS
B10: il2ra_site2_3nfp_normal_mot_HHH_b1_00660_af2_000000090_0001_40_57_H_._HHH_b1_05376_0001_0000100002_0000001_0_af2pred_0001_1_af2pred_swapped (protein)
chain: SSSSDKEEEIEELIRQAKELLENGNPEEAERLLRKASKLALELGDEELFLEILRLLELVKSSSSS

The other results are listed elsewhere or left out.

The experiment concerns the target il2ra, P01589. As to the kind of experiment: yeast display titration.
Take B1: the “apparent Kd” value was “inactive: no binding seen”.

Consider B2, for which the “apparent Kd” value was “inactive: no binding seen”.

Take B3: the “apparent Kd” value was “inactive: no binding seen”.

In the case of B4, the “apparent Kd” value is “inactive: no binding seen”.

B5: the “apparent Kd” value is “inactive: no binding seen”.

In the case of B6, the “apparent Kd” value is “inactive: no binding seen”.

With B7, the “apparent Kd” value was “inactive: no binding seen”.

For B8, the “apparent Kd” value is “inactive: no binding seen”.

For the molecule B9, the “apparent Kd” value was “inactive: no binding seen”.

For the molecule B10, the “apparent Kd” value was “inactive: no binding seen”.
